The list does not hold the whole screen: it gathers tests that were run many times, whatever their T/C, doses with no T/C, and many T/C values between a quarter and a half above the control. Further doses and runs are listed elsewhere. T/C gives the treated animals as a percentage of the vehicle group. Some doses have a count of surviving animals in place of a T/C: the source holds a T/C of zero for them, seemingly a mark for toxic or unscored doses. Some survivor counts are full or nearly so, which does not show that the dose was tolerated: survival well below the control is almost never listed, so the zero probably covers shortened survival too. Survivors were counted at the toxicity check, usually on the fifth day, unless a day is given; later deaths do not show. Schedules are NCI's codes, read here as Q, the interval in days (D) or hours (H), X, the number of doses. Some structures stand for samples that the source files as different forms (salt, stereo form or complex); doses refer to the form tested. Some entries were tested several times; the results are listed from low to high. Additions like (4×) give the number of equal values in this list. Where survival is the endpoint, this PubChem deposit counts one and a half times the control or more as active, and values a quarter to a half above the control carry no call in these data; other NCI protocols may use other cut-offs. Some T/C values are followed by the survivors on the day toxicity was checked, most often the fifth; where none is given, no animal had died by that day.
Tested on: L1210 leukemia ip in BDF1 mice, survival T/C
Test: NCI In Vivo Anticancer Drug Screen. Data for tumor model L1210 Leukemia (intraperitoneal) in B6D2F1 (BDF1) mice
Conditions: T/C endpoint: mean survival time, higher T/C = longer survival
[1] = dose: 50.0 mg/kg/injection, schedule: Q04DX002 (ip), vehicle: saline
[2] = dose: 100.0 mg/kg/injection, schedule: Q04DX002 (ip), vehicle: saline
[3] = dose: 200.0 mg/kg/injection, schedule: Q01DX009 (ip), vehicle: saline with Tween-80
[4] = dose: 400.0 mg/kg/injection, schedule: Q04DX003 (ip), vehicle: saline with Tween-80
[5] = dose: 150.0 mg/kg/injection, schedule: Q01DX001 (ip), vehicle: saline
[6] = dose: 50.0 mg/kg/injection, schedule: Q01DX009 (ip), vehicle: saline
[7] = dose: 100.0 mg/kg/injection, schedule: Q04DX003 (ip), vehicle: saline
[8] = dose: 200.0 mg/kg/injection, schedule: Q04DX003 (ip), vehicle: saline
[9] = dose: 400.0 mg/kg/injection, schedule: Q04DX003 (ip), vehicle: saline
[10] = dose: 100.0 mg/kg/injection, schedule: Q01DX009 (ip), vehicle: saline with Tween-80
[11] = dose: 100.0 mg/kg/injection, schedule: Q01DX009 (ip), vehicle: saline
[12] = dose: 200.0 mg/kg/injection, schedule: Q01DX001 (ip), vehicle: saline
[13] = dose: 200.0 mg/kg/injection, schedule: Q01DX009 (ip), vehicle: saline
[14] = dose: 400.0 mg/kg/injection, schedule: Q01DX009 (ip), vehicle: saline
[15] = dose: 400.0 mg/kg/injection, schedule: Q01DX009 (ip), vehicle: saline with Tween-80

CC[C@@H]1O[C@@H]([C@@H]2CC[C@](O)([C@]3(C)CC[C@@H]([C@@H](C)[C@@]4(O)CC[C@H](C)[C@@H](C[C@@]5(O)O[C@@H]([C@@H](C)[C@H](O)C[C@H]6CC[C@H](C)[C@@H]([C@@H](C)C(=O)O)O6)CC[C@@H]5C)O4)O3)O2)CC[C@@]1(C)O
survivor count (dose: 0.78 mg/kg/injection, schedule: Q04DX002 (ip), vehicle: saline): 2 of 3 | survivor count (dose: 1.56 mg/kg/injection, schedule: Q04DX002 (ip), vehicle: saline): 0 of 3 | survivor count (dose: 3.12 mg/kg/injection, schedule: Q04DX002 (ip), vehicle: saline): 0 of 3 | survivor count (dose: 6.25 mg/kg/injection, schedule: Q04DX002 (ip), vehicle: saline): 1 of 3 | survivor count (dose: 12.5 mg/kg/injection, schedule: Q04DX002 (ip), vehicle: saline): 0 of 3 | survivor count (dose: 25.0 mg/kg/injection, schedule: Q04DX002 (ip), vehicle: saline): 0 of 3 | survivor count [1]: 0 of 3 | survivor count [2]: 0 of 3 | survivor count (dose: 200.0 mg/kg/injection, schedule: Q04DX002 (ip), vehicle: saline): 0 of 3

O=C1SC2(CCCCC2)SC1=O
survivor count [3]: 0 of 6 | survivor count [4]: 3 of 6

CN1CCC2(C1)C1CC3CC(C1)CC2C3 (stereo not given)
survivor count [5]: 2 of 6 | survivor count (dose: 300.0 mg/kg/injection, schedule: Q01DX001 (ip), vehicle: saline): 0 of 6

OC1CCc2c(Cl)sc(Cl)c21 (stereo not given)
survivor count (dose: 100.0 mg/kg/injection, schedule: Q01DX001 (ip), vehicle: saline with Tween-80): 0 of 3 | survivor count (dose: 200.0 mg/kg/injection, schedule: Q01DX001 (ip), vehicle: saline with Tween-80): 1 of 3

O=C(Cn1ccc(=O)[nH]c1=O)Nc1nccs1
survivor count [6]: 0 of 6 | survivor count (dose: 50.0 mg/kg/injection, schedule: Q04DX003 (ip), vehicle: saline): 2 of 6 | survivor count [7]: 2 of 6 | survivor count [8]: 0 of 6 | survivor count [9]: 0 of 6

CN(C)CCCCCO
survivor count [10]: 6 of 6 | survivor count [4]: 4 of 6

CC[N+](CC)(CC)Cc1ccccc1 (tested in a mixture with another compound)
survivor count [6]: 3 of 3 | survivor count [11]: 0 of 3 and 4 of 6 | survivor count [7]: 3 of 6, 4 of 6, 5 of 6 | survivor count [12]: 1 of 6 | survivor count [13]: 0 of 6 | survivor count [8]: 0 of 6 (2×) | survivor count (dose: 400.0 mg/kg/injection, schedule: Q01DX001 (ip), vehicle: saline): 1 of 6 | survivor count [14]: 0 of 6 | survivor count [9]: 0 of 6 (2×)

NP(=O)(N1CC1)N1CC1
T/C (dose: 2.0 mg/kg/injection, schedule: Q01DX015 (ip), vehicle: carboxymethylcellulose (CMC)): 140 % of control | T/C (dose: 5.0 mg/kg/injection, schedule: Q01DX015 (ip), vehicle: carboxymethylcellulose (CMC)): 130 % of control | T/C (dose: 8.0 mg/kg/injection, schedule: Q01DX001 (ip), vehicle: carboxymethylcellulose (CMC)): 131 % of control | survivor count (dose: 10.0 mg/kg/injection, schedule: Q01DX015 (ip), vehicle: carboxymethylcellulose (CMC)): 6 of 6 | survivor count (dose: 60.0 mg/kg/injection, schedule: Q01DX001 (ip), vehicle: carboxymethylcellulose (CMC)): 0 of 4 | survivor count (dose: 120.0 mg/kg/injection, schedule: Q01DX001 (ip), vehicle: carboxymethylcellulose (CMC)): 0 of 4

C=CC(c1ccccc1)C(O)(Cc1ccccc1)Cc1ccccc1 (stereo not given)
survivor count (dose: 50.0 mg/kg/injection, schedule: Q01DX009 (ip), vehicle: DMSO): 2 of 3 | survivor count (dose: 100.0 mg/kg/injection, schedule: Q01DX009 (ip), vehicle: DMSO): 1 of 3 | survivor count (dose: 200.0 mg/kg/injection, schedule: Q01DX009 (ip), vehicle: DMSO): 3 of 3

C=CCOC(=O)C(=O)OCC=C
survivor count [3]: 4 of 6 | survivor count [15]: 0 of 6

Cc1cc(C(N)=O)c(C#N)c(=O)[nH]1
survivor count (dose: 300.0 mg/kg/injection, schedule: Q01DX001 (ip), vehicle: steroid suspending solution): 2 of 6

CCN1N=Nc2cccc3cccc1c23
survivor count (dose: 400.0 mg/kg/injection, schedule: Q04DX003 (ip), vehicle: acetone): 0 of 6

COC(=O)C[CH2][Sn]([Br])([Br])[c]1ccccc1
survivor count (dose: 200.0 mg/kg/injection, schedule: Q04DX002 (ip), vehicle: saline with Tween-80): 0 of 3 | survivor count (dose: 400.0 mg/kg/injection, schedule: Q04DX002 (ip), vehicle: saline with Tween-80): 0 of 3

C[N+](C)(C)CC(O)CC#N (stereo not given)
survivor count (dose: 50.0 mg/kg/injection, schedule: Q01DX009 (ip), vehicle: Klucel (hydroxypropylcellulose) (HPC)): 5 of 6 | survivor count (dose: 100.0 mg/kg/injection, schedule: Q01DX009 (ip), vehicle: Klucel (hydroxypropylcellulose) (HPC)): 2 of 6 | survivor count (dose: 200.0 mg/kg/injection, schedule: Q01DX009 (ip), vehicle: Klucel (hydroxypropylcellulose) (HPC)): 0 of 6

NC1=NCCN1c1cccc2ccccc12
survivor count (dose: 300.0 mg/kg/injection, schedule: Q01DX001 (ip), vehicle: carboxymethylcellulose (CMC)): 3 of 6

OC1CC2CCC(C1)N2CCCN1c2ccccc2Sc2ccc(Cl)cc21 (stereo not given)
T/C [10]: 128 % of control | survivor count [10]: 4 of 6 | survivor count [3]: 0 of 6 | T/C (dose: 200.0 mg/kg/injection, schedule: Q04DX003 (ip), vehicle: saline with Tween-80): 125 and 125 % of control [5 of 6 alive] | survivor count (dose: 300.0 mg/kg/injection, schedule: Q04DX003 (ip), vehicle: saline with Tween-80): 1 of 6 | survivor count [15]: 0 of 6

C[CH2][Sn]([CH2]C)([O]S(=O)(=O)CC12CCC(CC1=O)C2(C)C)[O]S(=O)(=O)CC12CCC(CC1=O)C2(C)C
T/C (dose: 12.5 mg/kg/injection, schedule: Q01DX009 (ip), vehicle: saline): 139 % of control [2 of 3 alive] | T/C (dose: 28.0 mg/kg/injection, schedule: Q01DX009 (ip), vehicle: saline): 126 % of control | survivor count [6]: 0 of 3 | T/C [1]: 127 % of control [5 of 6 alive] | survivor count [1]: 2 of 6 | survivor count (dose: 65.0 mg/kg/injection, schedule: Q01DX001 (ip), vehicle: saline): 0 of 6 | survivor count (dose: 75.0 mg/kg/injection, schedule: Q04DX002 (ip), vehicle: saline): 1 of 6 | survivor count (dose: 100.0 mg/kg/injection, schedule: Q01DX001 (ip), vehicle: saline): 0 of 6 and 2 of 6 | survivor count [11]: 0 of 3 and 0 of 6 | survivor count [2]: 0 of 6 | survivor count (dose: 110.0 mg/kg/injection, schedule: Q04DX002 (ip), vehicle: saline): 0 of 6 | survivor count [5]: 0 of 6 | survivor count [12]: 1 of 6 | survivor count [13]: 0 of 6 | survivor count (dose: 225.0 mg/kg/injection, schedule: Q01DX001 (ip), vehicle: saline): 0 of 6 | survivor count [14]: 0 of 6

CCS/C(N)=N\N
survivor count [7]: 0 of 6

CCN(CC)CCCC(C)Nc1cc(N)nc2nc(-c3ccc(Cl)cc3)c(-c3ccc(Cl)cc3)nc12 (stereo not given)
survivor count (dose: 150.0 mg/kg/injection, schedule: Q01DX001 (ip), vehicle: other): 1 of 6 | survivor count (dose: 150.0 mg/kg/injection, schedule: Q01DX009 (ip), vehicle: Klucel (hydroxypropylcellulose) (HPC)): 0 of 6 | survivor count (dose: 300.0 mg/kg/injection, schedule: Q01DX001 (ip), vehicle: other): 0 of 6

O=C1OC(=O)C(Br)=C1Br
T/C [2]: 125 % of control | survivor count (dose: 400.0 mg/kg/injection, schedule: Q04DX002 (ip), vehicle: saline): 0 of 3 | survivor count [9]: 2 of 6

CC(C)N1CCOC1c1ccccc1 (stereo not given)
survivor count [9]: 3 of 6

— PubChem BioAssay AID248 (DTP/NCI, 2004)
